Results as given in publication doi:10.1101/2023.05.13.539637.
These are yes or no findings as the source states them, for the method shown. Binding seen in cells or lysates may run through a third protein. Some entries that bind do so weakly or less than the wild type.

B1: in vitro translated HES1 protein (protein, UniProt Q14469 1-280)
chain: MPADIMEKNSSSPVAATPASVNTTPDKPKTASEHRKSSKPIMEKRRRARINESLSQLKTLILDALKKDSSRHSKLEKADILEMTVKHLRNLQRAQMTAALSTDPSVLGKYRAGFSECMNEVTRFLSTCEGVNTEVRTRLLGHLANCMTQINAMTYPGQPHPALQAPPPPPPGPGGPQHAPFAPPPPLVPIPGGAAPPPGGAPCKLGSQAGEAAKVFGGFQVVPAPDGQFAFLIPNGAFAHSGPVIPVYTSNSGTSVGPNAVSPSSGPSLTADSMWRPWRN
B2: HES1, endogenous (protein, UniProt Q14469 1-280)
chain: B1 chain

Columns and labels:
[1] = biological target: GST-RIP1(27-439), N-terminal fragment of RIP140 (Receptor Interacting Protein of 140 kDa) fused with GST (UniProt P48552); experiment: pull-down
[2] = biological target: T1, RIP140 (Receptor Interacting Protein of 140 kDa), endogenous (human (endogenous in SW620 and HT29)) (UniProt P48552); experiment: proximity ligation
T1 sequence: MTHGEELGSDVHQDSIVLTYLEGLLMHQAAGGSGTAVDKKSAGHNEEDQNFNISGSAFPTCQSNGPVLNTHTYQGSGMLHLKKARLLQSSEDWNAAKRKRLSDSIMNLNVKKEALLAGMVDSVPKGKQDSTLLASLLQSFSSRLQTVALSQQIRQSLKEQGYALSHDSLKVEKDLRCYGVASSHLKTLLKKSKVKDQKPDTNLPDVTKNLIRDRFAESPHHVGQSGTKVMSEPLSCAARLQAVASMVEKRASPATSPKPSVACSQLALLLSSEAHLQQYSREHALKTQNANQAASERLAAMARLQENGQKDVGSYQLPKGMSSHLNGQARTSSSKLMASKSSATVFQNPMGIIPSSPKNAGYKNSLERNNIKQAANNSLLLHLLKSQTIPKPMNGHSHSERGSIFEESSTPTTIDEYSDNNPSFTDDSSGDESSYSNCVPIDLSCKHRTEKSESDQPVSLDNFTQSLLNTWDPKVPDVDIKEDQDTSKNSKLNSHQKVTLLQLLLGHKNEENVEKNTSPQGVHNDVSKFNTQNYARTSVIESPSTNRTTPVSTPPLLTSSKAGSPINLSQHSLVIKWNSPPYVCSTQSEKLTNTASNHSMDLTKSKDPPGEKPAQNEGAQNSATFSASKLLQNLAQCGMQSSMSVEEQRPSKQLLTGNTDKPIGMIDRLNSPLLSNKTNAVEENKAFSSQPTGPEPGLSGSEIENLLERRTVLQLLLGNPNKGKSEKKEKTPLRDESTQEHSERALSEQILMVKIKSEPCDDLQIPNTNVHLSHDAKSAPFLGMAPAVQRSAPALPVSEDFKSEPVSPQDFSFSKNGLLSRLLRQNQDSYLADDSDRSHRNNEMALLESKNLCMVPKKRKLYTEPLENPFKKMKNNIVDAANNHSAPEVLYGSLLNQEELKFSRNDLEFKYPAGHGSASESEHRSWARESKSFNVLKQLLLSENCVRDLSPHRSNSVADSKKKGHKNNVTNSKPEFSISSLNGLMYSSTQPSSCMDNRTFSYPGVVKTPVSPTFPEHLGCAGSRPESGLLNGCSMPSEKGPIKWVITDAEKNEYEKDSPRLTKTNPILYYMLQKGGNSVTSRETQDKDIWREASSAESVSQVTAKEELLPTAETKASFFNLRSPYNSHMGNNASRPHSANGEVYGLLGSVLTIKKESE

| Binder | binding [1] | binding [2] |
| --- | --- | --- |
| B1 | binds |  |
| B2 |  | binds |
